In PMC10286459, “The development of an anti-cancer peptide M1-21 targeting transcription factor FOXM1” (Cell & Bioscience, 2023):

Test system: recombinant FOXM1 protein (EMSA)
Test: EMSA
Conditions: 20 mM Tris-Cl, 50 mM KCl, 0.5 mM EDTA, 0.2 mM DTT, 10% glycerol, pH 7.6, 30 min on ice, 4% native PAGE in 0.5x TBE, label: FAM on forward strand (printed as FAM-TTTG..., 5')

## TTTGTTTATTTGTTTGTTTATTTG (double strand) [FAM dsDNA FOXM1 probe]
2 uM protein, 50 nM probe, specificity shown with 100x unlabeled probe (5 uM)
  binding result: binds
Plus M1-21 peptide 0.5, 1 and 2 uM (does not disturb DNA binding)
  binding result: binds

For at least one entry, the source does not settle the construct or the ends of the probe.
